From patent US8198405B2, “Stabilized alpha helical peptides and uses thereof” (Dana-Farber Cancer Institute, Inc., priority 2003, dated 2012)
For some of these results: At least one peptide structure holds a part that was inferred or is arguable (an end, a ring closure or a residue). For some of these results: At least one compound was matched to its structure with a doubt left. Some results were stated once for a whole list of compounds, not compound by compound. Where a SMILES comes first, the peptide text is derived from it. [ ]: non-standard residue; d: D form. The star is where a group is joined. FITC = O=C1OC2(c3ccc(O)cc3Oc3cc(O)ccc32)c2ccc(NC(=S)*)cc21; Nle = CCCC[C@H](N)C(=O)O; βAla = NCCC(=O)O

By UniProt entry, the sequences of proteins in these tests, tags left out. Residues count along the entry.
UniProt P10415, 1-218 limits assumed: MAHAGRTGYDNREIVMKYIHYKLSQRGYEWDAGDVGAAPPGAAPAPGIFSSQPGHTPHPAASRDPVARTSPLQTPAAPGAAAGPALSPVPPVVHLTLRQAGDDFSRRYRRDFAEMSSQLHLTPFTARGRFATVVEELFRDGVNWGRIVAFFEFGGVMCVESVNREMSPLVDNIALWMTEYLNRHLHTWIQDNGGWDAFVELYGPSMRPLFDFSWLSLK
UniProt Q07812, whole entry: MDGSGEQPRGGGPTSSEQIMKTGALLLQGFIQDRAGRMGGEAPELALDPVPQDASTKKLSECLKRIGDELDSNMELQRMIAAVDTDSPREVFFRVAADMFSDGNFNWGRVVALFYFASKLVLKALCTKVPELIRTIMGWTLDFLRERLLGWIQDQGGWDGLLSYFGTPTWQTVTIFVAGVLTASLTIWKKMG

Tests used:
GST-BCL-2 = biological target: T1, GST-BCL-2 (Homo sapiens, UniProt P10415); assay: Fluorescence polarization competitive binding (displacement of FITC-BID BH3); conditions: read-out: IC50 for displacement of prebound FITC-BID BH3 from BCL-2
T1 construct: containing the plasmid encoding C-terminal deleted GST-BCL-2; made in house; host or cells: Escherichia coli BL21 (DE3)

BCL-2 = biological target: T2, BCL-2 (Homo sapiens, UniProt P10415); assay: Fluorescence polarization direct binding assay; conditions: values stated
T2 construct: containing the plasmid encoding C-terminal deleted GST-BCL-2; made in house; host or cells: Escherichia coli BL21 (DE3)

BAX = biological target: T3, BAX (Homo sapiens, UniProt Q07812); assay: Fluorescence polarization direct binding assay; conditions: full-length BAX
T3 construct: Full-length BAX protein was prepared as previously described (Suzuki et al, Cell, 103:645); made in house

[1] = test system: purified mouse liver mitochondria; assay: Cytochrome c release assay (ELISA), wild-type mitochondria; assay type: biochemical
Protocol: In order to assess the biological activity of SAHB3BID compounds in vitro, cytochrome c release assays were performed using purified mouse liver mitochondria. Mitochondria (0.5 mg/mL) were incubated for 40 minutes with 1 μM and 100 nM of SAHB3BID compounds and then supernatants and mitochondrial fractions isolated and subjected to cytochrome c ELISA assay. Background cytochrome c release (10-15%) was subtracted from total release for each sample, and the percent actual cytochrome c release was determined (FIG. 12). […] In each case, except for the double cross-linked SAHB3BIDE (which may lack critical amino acids for biological activity or, in this case, be overly constrained by the dual cross-links), there is approximately a doubling of cytochrome c release in response to 1 μM SAHB3BID compounds compared to the unmodified peptide (FIG. 12a). […] BID mutants with defective BH3 domains can promote BAK-independent cytochrome c mobilization (Scorrano et al, Dev Cell, 2:55), and the highly hydrophobic BID helix 6 has been implicated in this activity (L. Scorrano, S. J. Korsmeyer, unpublished results).
Similar to the above experiment, mouse liver mitochondria from wild-type and Bak−/− mice were exposed to the compounds at various concentrations and assayed for cytochrome c release at 10 and 40 minute intervals. […] Thus, SAHB3BIDA and B display a 10-25 fold enhancement in cytochrome c release activity at the 40 minute time point.

Jurkat leukemia cells = assay: Apoptosis by annexin V flow cytometry; assay type: cell-based; conditions: 10 μM, 20 hours
Protocol: Indeed, the pro-apoptotic effect of 10 uM SAHB3BIDA and B on “wild-type” Jurkats was abolished in the BCL-2 overexpressing cells. […] The observed pro-apoptotic effects are selectively abolished by gly to glu mutation of SAHB3BIDA and cellular overexpression of BCL-2, findings which underscore that SAHB3BID compounds function via the defined mitochondrial apoptosis pathway.

[2] = test system: Jurkat T-cell leukemia cells; assay: Cellular uptake of FITC-peptides by FACS; conditions: fluorescein-derivatized peptides, 4-24 hours, trypsin-treated cells
[3] = Circular dichroism, percent α-helicity; assay type: physicochemical; conditions: compared to unmodified BID BH3 peptide

## CSCC[C@H](NC(=O)[C@H](CCCNC(=N)N)NC(=O)[C@H](CCCNC(=N)N)NC(=O)[C@H](CC(C)C)NC(=O)[C@H](CCC(=O)O)NC(=O)[C@H](CCCNC(=N)N)NC(=O)CNC(=O)[C@H](Cc1ccc(O)cc1)NC(=O)[C@H](CCCNC(=N)N)NC(=O)[C@H](CCC(N)=O)NC(=O)[C@H](C)NC(=O)[C@H](C)NC(=O)[C@H](Cc1c[nH]c2ccccc12)NC(=O)[C@H](CC(C)C)NC(=O)[C@H](CC(N)=O)NC(C)=O)C(=O)N[C@@H](CO)C(=O)N[C@@H](CC(=O)O)C(=O)N[C@@H](CCC(=O)O)C(=O)N[C@@H](Cc1ccccc1)C(=O)N[C@H](C(=O)N[C@@H](CC(=O)O)C(=O)N[C@@H](CO)C(=O)N[C@@H](Cc1ccccc1)C(=O)N[C@@H](CCCCN)C(=O)N[C@@H](CCCCN)C(N)=O)C(C)C [BAD BH3, reference compound]
GST-BCL-2
  IC50: 173 nM
BCL-2
  Kd: 41 nM

## CCCC[C@H](NC(=O)[C@H](CO)NC(=O)[C@H](CC(=O)O)NC(=O)CNC(=O)[C@@H](NC(=O)[C@H](CCC(N)=O)NC(=O)[C@H](C)NC(=O)[C@H](CC(C)C)NC(=O)[C@H](Cc1c[nH]cn1)NC(=O)[C@H](CCCNC(=N)N)NC(=O)[C@H](C)NC(=O)[C@@H](NC(=O)[C@H](CC(N)=O)NC(=O)[C@H](CCCNC(=N)N)NC(=O)[C@@H](NC(=O)[C@@H](NC(=O)[C@H](CC(=O)O)NC(=O)[C@@H](N)CCC(=O)O)[C@@H](C)CC)[C@@H](C)CC)[C@@H](C)CC)C(C)C)C(=O)N[C@@H](CC(=O)O)C(=O)N[C@@H](CCCNC(=N)N)C(=O)N[C@@H](CO)C(=O)N[C@H](C(=O)N[C@@H](Cc1c[nH]c2ccccc12)C(N)=O)[C@@H](C)CC [BID BH3, reference compound] (H-EDIIRNIARHLAQVGDS[Nle]DRSIW-NH2)
BAX
  BAX binding, in words: no binding
[1]; 10 minutes, highest dose tested (1 μM)
  cytochrome c release: less than 10%
[1]; 40 minutes
  EC50: 2900 nM
Jurkat leukemia cells
  apoptosis induction, in words: no effect
[2]
  FITC labeling of cells (FACS): FITC-negative

## CCCC[C@H](NC(=O)[C@H](CO)NC(=O)[C@H](CC(=O)O)NC(=O)CNC(=O)[C@@H](NC(=O)[C@H](CCC(N)=O)NC(=O)[C@H](C)NC(=O)[C@H](CC(C)C)NC(=O)[C@H](Cc1c[nH]cn1)NC(=O)[C@H](CCCNC(=N)N)NC(=O)[C@H](C)NC(=O)[C@@H](NC(=O)[C@H](CC(N)=O)NC(=O)[C@H](CCCNC(=N)N)NC(=O)[C@@H](NC(=O)[C@@H](NC(=O)[C@H](CC(=O)O)NC(=O)[C@H](CCC(=O)O)NC(=O)CCNC(=S)Nc1ccc2c(c1)C(=O)OC21c2ccc(O)cc2Oc2cc(O)ccc21)[C@@H](C)CC)[C@@H](C)CC)[C@@H](C)CC)C(C)C)C(=O)N[C@@H](CC(=O)O)C(=O)N[C@@H](CCCNC(=N)N)C(=O)N[C@@H](CO)C(=O)N[C@H](C(=O)N[C@@H](Cc1c[nH]c2ccccc12)C(N)=O)[C@@H](C)CC [FITC-BID BH3] ({FITC-βAla}-EDIIRNIARHLAQVGDS[Nle]DRSIW-NH2)
BCL-2
  Kd: 220 nM

## CCCC[C@H](NC(=O)[C@]1(C)CCCC=CCCC[C@](C)(NC(=O)[C@H](C)NC(=O)[C@H](CC(C)C)NC(=O)[C@H](Cc2c[nH]cn2)NC(=O)[C@H](CCCNC(=N)N)NC(=O)[C@H](C)NC(=O)[C@@H](NC(=O)[C@H](CC(N)=O)NC(=O)[C@H](CCCNC(=N)N)NC(=O)[C@@H](NC(=O)[C@@H](NC(=O)[C@H](CC(=O)O)NC(=O)[C@H](CCC(=O)O)NC(C)=O)[C@@H](C)CC)[C@@H](C)CC)[C@@H](C)CC)C(=O)N[C@@H](C(C)C)C(=O)NCC(=O)N[C@@H](CC(=O)O)C(=O)N1)C(=O)N[C@@H](CC(=O)O)C(=O)N[C@@H](CCCNC(=N)N)C(=O)N[C@@H](CO)C(=O)N[C@H](C(=O)N[C@@H](Cc1c[nH]c2ccccc12)C(N)=O)[C@@H](C)CC [SAHB3BIDA]
[3]
  enhancement of percent α-helicity of BID's BH3 domain: more than 5 fold
[1]; 40 minute time point
  enhancement in cytochrome c release activity versus unmodified peptide: 10-25 fold
